Experimental findings from PMC9392799 are described below.

Amino acid sequences for entries named in this document (tags omitted). Residues count along the entry.
UniProt Q14694: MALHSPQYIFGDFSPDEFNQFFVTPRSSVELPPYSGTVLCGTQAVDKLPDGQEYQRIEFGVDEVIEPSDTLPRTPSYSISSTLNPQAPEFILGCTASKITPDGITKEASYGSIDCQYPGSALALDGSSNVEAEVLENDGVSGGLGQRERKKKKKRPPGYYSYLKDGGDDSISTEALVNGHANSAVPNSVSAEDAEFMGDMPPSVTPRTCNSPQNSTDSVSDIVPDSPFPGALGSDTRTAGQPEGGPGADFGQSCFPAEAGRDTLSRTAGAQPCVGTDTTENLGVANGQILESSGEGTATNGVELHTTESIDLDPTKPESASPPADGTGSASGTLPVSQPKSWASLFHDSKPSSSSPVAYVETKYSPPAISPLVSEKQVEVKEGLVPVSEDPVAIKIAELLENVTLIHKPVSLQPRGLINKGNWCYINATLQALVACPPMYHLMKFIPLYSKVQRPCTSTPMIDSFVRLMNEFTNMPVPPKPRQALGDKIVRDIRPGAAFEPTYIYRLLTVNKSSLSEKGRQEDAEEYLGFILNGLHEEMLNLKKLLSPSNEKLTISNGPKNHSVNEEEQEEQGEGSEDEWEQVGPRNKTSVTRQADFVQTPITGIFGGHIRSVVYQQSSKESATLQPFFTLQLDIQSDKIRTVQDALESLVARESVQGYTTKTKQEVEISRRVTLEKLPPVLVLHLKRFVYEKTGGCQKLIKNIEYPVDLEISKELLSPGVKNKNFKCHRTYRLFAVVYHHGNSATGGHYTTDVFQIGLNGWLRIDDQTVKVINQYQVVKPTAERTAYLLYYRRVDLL
Tau307-326K peptide (P10636, residues 624-643): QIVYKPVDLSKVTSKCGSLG
Tau341-378K peptide (P10636, residues 658-695): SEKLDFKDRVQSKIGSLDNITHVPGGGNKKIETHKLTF

In the test the target is USP10 from the plasmid EGFP-USP10 (GV 230) (UniProt Q14694). The test can be described thus: co-IP; in vitro competition: anti-Tau5 precipitate from N2a cells co-expressing USP10 and Tau441 incubated with 1 mM synthetic peptide (each alone or the two together) for 30 min at room temperature; USP10 left on the precipitate blotted; only the binder purified.

These are yes or no findings as the source states them, for the method shown. Binding seen in cells or lysates may run through a third protein. Some binding calls cover weakened binding; strength is not graded here.

As for “Tau307-326K peptide (from UniProt P10636-8 307-326)”, the binding result is recorded as “binds”.
Turning to “Tau341-378K peptide (from UniProt P10636-8 341-378)”, the binding entry is given as “binds”.
